From PMC7819943, “Rice protein-binding microarrays: a tool to detect cis-acting elements near promoter regions in rice” come the findings set out here.

The other results are listed elsewhere or left out.

The target in the experiment is T1, OsSMF1 (Oryza sativa, UniProt Q6ZLB0 1-436).
T1 sequence: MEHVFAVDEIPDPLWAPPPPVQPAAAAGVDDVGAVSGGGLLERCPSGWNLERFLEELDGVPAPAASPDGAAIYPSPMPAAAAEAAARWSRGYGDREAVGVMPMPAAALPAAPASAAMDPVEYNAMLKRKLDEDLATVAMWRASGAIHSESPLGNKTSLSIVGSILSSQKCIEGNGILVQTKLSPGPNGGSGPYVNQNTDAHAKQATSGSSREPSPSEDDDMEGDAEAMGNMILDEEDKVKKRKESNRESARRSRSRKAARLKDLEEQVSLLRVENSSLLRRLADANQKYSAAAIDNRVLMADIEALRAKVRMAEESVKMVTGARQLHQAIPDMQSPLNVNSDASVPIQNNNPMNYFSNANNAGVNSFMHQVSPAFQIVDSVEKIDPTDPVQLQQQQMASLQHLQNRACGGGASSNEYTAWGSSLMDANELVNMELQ
The experiment can be described thus: protein-binding microarray (RPBM); PBS, 2% BSA, 51.3 ng/ul salmon testes DNA, 50 uM zinc acetate, 200 nM TF, 25 C, 1 h; high values mean tight binding. The note with it: protein: recombinant; tags: N-terminal polyhistidine and DsRed monomer fusion (pET32a); chain copies: 2; label: CyDye5-dUTP incorporated in the synthesized complementary strand; 3' TTTTT single-stranded linker to array surface; dsDNA, one strand shown. The method in brief:
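Binding signal is reported as fluorescence intensity per feature (arbitrary units) from an Axon 4000B scanner. Incubation used 200 nM of each Ni–NTA-purified, N-terminally polyhistidine- and DsRed-fused transcription factor from E. coli BL21-CodonPlus on a double-stranded custom Agilent array for 1 h at 25 °C, with 50 µM zinc acetate in the buffer, followed by washing.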
“CACCGCAGATTTCTGGCCCCACATGTCAGCTTGGCGTGTCCGGAGTCACCTAGTGCAG”: the binding signal was 4320 fluorescence intensity (a.u.).

In the case of “CCAGATCTAGGCAGAGATCCCAACCTGTCATCATCACGCTCGGAGTCACCTAGTGCAG”, the binding signal is 3140 fluorescence intensity (a.u.).

Turning to “GCCCAGCCCAGCCCGCTCTTCGTTTCCTCTCTAGTGACTTCGGAGTCACCTAGTGCAG”, the binding signal was 25800 fluorescence intensity (a.u.).

In the case of “CCTCATCACCATACTCAACCCAGTCACCCGCACCGTTCTCCGGAGTCACCTAGTGCAG”, the binding signal was 3900 fluorescence intensity (a.u.).

Take “AGGGTGTAAATGTACGCTGAAAATATCGTCAGATGTGCGGCGGAGTCACCTAGTGCAG”: the binding signal is 4010 fluorescence intensity (a.u.).

“ACACGTCCTAAACCGTGGGACCCACATACACGTCATGCCACGGAGTCACCTAGTGCAG”: the binding signal was 10900 fluorescence intensity (a.u.).

Regarding “CACCTGTCACAGCCACTTGCCGGTGACGTCCGTTCGAAAGCGGAGTCACCTAGTGCAG”, the binding signal is 4520 fluorescence intensity (a.u.).

Consider “AAACTAGTACACCTAAGAAGTTGCCAAAAGAAACTAGTAGCGGAGTCACCTAGTGCAG”, for which the binding signal was 3200 fluorescence intensity (a.u.).

As for “CTATCACCCGACGTGGATCCGTGCTGTTCAATTACAGAATCGGAGTCACCTAGTGCAG”, the binding signal is 5080 fluorescence intensity (a.u.).

“AAGCATCTGATACTTTTGCTGTGCTGTTCTTTAATTTACCCGGAGTCACCTAGTGCAG”: the binding signal is 4350 fluorescence intensity (a.u.).

Consider “GTTTGAAGTTTGTGTGTGTAGGAAAGTTTTGATGTGATGGCGGAGTCACCTAGTGCAG”, for which the binding signal is 3830 fluorescence intensity (a.u.).

Consider “TCATGTGCTACTCGTTCTGCGTGAGTCGAAAATCTCTCTCCGGAGTCACCTAGTGCAG”, for which the binding signal was 25200 fluorescence intensity (a.u.).

Regarding “CCCTCTGAGGTCAACCTGACAAGGAGTTGTGATCCTGTCTCGGAGTCACCTAGTGCAG”, the binding signal was 3640 fluorescence intensity (a.u.).

Turning to “GCACGCCCTCGAGTTTCTCCTCCTCGTCGACGTCGACCTCCGGAGTCACCTAGTGCAG”, the binding signal is 4270 fluorescence intensity (a.u.).

For the sequence “TTTACAGTATTTGTTATTTAAGACCTGTCATAATCTTTATCGGAGTCACCTAGTGCAG”, the binding signal is 3380 fluorescence intensity (a.u.).

Turning to “TATTTTGGTATGACCAAAATAGAATAGTTCGCTCTTATGACGGAGTCACCTAGTGCAG”, the binding signal is 30700 fluorescence intensity (a.u.).

In the case of “AACCCGTTCGTGCAACGAGCATTAGGCTTATCGGATATATCGGAGTCACCTAGTGCAG”, the binding signal is 3700 fluorescence intensity (a.u.).

With “CGCCGCGGGAGGAGGCGTCACCTTGTCACGCTCCTCGCCTCGGAGTCACCTAGTGCAG”, the binding signal was 4180 fluorescence intensity (a.u.).

Turning to “AGCAGCAACCACGTGTTTCATGAAATATATCGCGCGATGTCGGAGTCACCTAGTGCAG”, the binding signal was 3680 fluorescence intensity (a.u.).

For the sequence “CCGTCGAGTAGTAAACGGATGGACGGTCCAGATCACCCCGCGGAGTCACCTAGTGCAG”, the binding signal was 4130 fluorescence intensity (a.u.).

As to “AGAGTTTCTTGTTCAATATTAGATGTGTGCAACGAAATGTCGGAGTCACCTAGTGCAG”, the binding signal was 15400 fluorescence intensity (a.u.).

On to “TTAAATTTGGAGTTAAACAGGTCATACTCATGATCAACTACGGAGTCACCTAGTGCAG”, for which the binding signal was 3660 fluorescence intensity (a.u.).

In the case of “ACGGAATGTGGAGAGGTGGGTGGGGCCTCGTGGAGATTCCCGGAGTCACCTAGTGCAG”, the binding signal is 7550 fluorescence intensity (a.u.).

As to “GAATGTTATATTGCCATGTCACCAAATTTAACTTACATGCCGGAGTCACCTAGTGCAG”, the binding signal was 6290 fluorescence intensity (a.u.).

On to “GTCATCCATGACTCGGACGCGTCACCTCCTCTGCCTCTATCGGAGTCACCTAGTGCAG”, for which the binding signal is 13500 fluorescence intensity (a.u.).

Consider “CGCTTTAAGATTCGTGCCGGGACACGTGTCATCATCCTACCGGAGTCACCTAGTGCAG”, for which the binding signal was 12600 fluorescence intensity (a.u.).

As for “CCTCCTGCTGCTGCTGTTGTTGCGAGAGAGAGAGAGAGAGCGGAGTCACCTAGTGCAG”, the binding signal is 3250 fluorescence intensity (a.u.).

Consider “GTAGACGAAGACCTGGCAAGTCCTTGGGCTTAAATCTCACCGGAGTCACCTAGTGCAG”, for which the binding signal is 17800 fluorescence intensity (a.u.).

For “GCTCCCTTGTGTGACAACGCCGATCCTCACCTACACCTTCCGGAGTCACCTAGTGCAG”, the binding signal was 3930 fluorescence intensity (a.u.).

With “AGGGAATAAAAGTTTAATTTATAGGTAAACTTTATATATACGGAGTCACCTAGTGCAG”, the binding signal is 27400 fluorescence intensity (a.u.).

With “TGAGTTTGGGCGACACGCAAGCATGTATGTGTGGATATCACGGAGTCACCTAGTGCAG”, the binding signal is 5410 fluorescence intensity (a.u.).

“ATCAGAATATACTCATATAGTCACGTGAGATCTTGTTACGCGGAGTCACCTAGTGCAG”: the binding signal was 3380 fluorescence intensity (a.u.).

“CAGTTAGACAGAGACGTGCCACATTTATGCCACCGTTTGACGGAGTCACCTAGTGCAG”: the binding signal is 3160 fluorescence intensity (a.u.).

In the case of “TAAAACAACATTTAACTTGCTATATTCAATTCATTCTTTTCGGAGTCACCTAGTGCAG”, the binding signal was 26100 fluorescence intensity (a.u.).

Consider “GGCCCGGAAAATTTCACGCCGCTGAACTGAACTGACGCGTCGGAGTCACCTAGTGCAG”, for which the binding signal was 3150 fluorescence intensity (a.u.).

As to “TATATGGGCCTGAGTTGGCCCGGCAACGTGGGCCTTCTGCCGGAGTCACCTAGTGCAG”, the binding signal is 3200 fluorescence intensity (a.u.).

For the sequence “GGGTGATGCTGAACGCTGCAATGACTATTACTATGTTCCTCGGAGTCACCTAGTGCAG”, the binding signal was 3200 fluorescence intensity (a.u.).

On to “AACTGCTAAGGGCCGGGGAATGCAGTTCGTTTTCGCCTGACGGAGTCACCTAGTGCAG”, for which the binding signal was 12800 fluorescence intensity (a.u.).

In the case of “CAATAAGTGACAGATAGAAAGATAGAAAGGGGTCAAAATGCGGAGTCACCTAGTGCAG”, the binding signal was 3550 fluorescence intensity (a.u.).

For the sequence “TATACTCGTGTTATACATATATCAACAAAACAATAGGCCTCGGAGTCACCTAGTGCAG”, the binding signal is 28900 fluorescence intensity (a.u.).

In the case of “TGTAGCACTTATGACTAATCATGGACTAATTAGGCTCAAACGGAGTCACCTAGTGCAG”, the binding signal is 5360 fluorescence intensity (a.u.).

“CTCGCTCCTGTATCATCATGTGATGATGTCCCTAATACTCCGGAGTCACCTAGTGCAG”: the binding signal was 5510 fluorescence intensity (a.u.).
